Experimental data reported in patent publication US20160340421A1.
Positions count from the first letter of the chain named. No constants are given. Whether binding was seen depends on the method and setting. Some results given as binding are weak or reduced against the parent protein; the word gives no strength.

Assays:
[1] = molecular target: 8D12; test: Western blot with antibody pre-incubated with peptide, 50 fold molar excess
[2] = molecular target: T1, hGDF8 peptide 12 (73-90), C-terminal biotinylated (human); test: Luminex peptide beads, antibody 2.5 µg/ml
T1 sequence (peptide, C-terminal biotin): CCTPTKMSPINMLYFNGK

[3] = molecular target: T2, hGDF8 peptide 4 (48-65), C-terminal biotinylated (human); test: Luminex peptide beads, antibody 2.5 µg/ml
T2 sequence (peptide, C-terminal biotin): EFVFLQKYPHTHLVHQAN

[4] = molecular target: T3, hGDF8 peptide 4 (48-65), unmodified (human); test: Luminex peptide beads, antibody 2.5 µg/ml
T3 sequence (peptide): EFVFLQKYPHTHLVHQAN

[5] = molecular target: T4, hGDF8 peptide 5 (48-69), C-terminal biotinylated (human); test: Luminex peptide beads, antibody 2.5 µg/ml
T4 sequence (peptide, C-terminal biotin): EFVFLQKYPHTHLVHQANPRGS

[6] = molecular target: T5, hGDF8 peptide 5 (48-69), unmodified (human); test: Luminex peptide beads, antibody 2.5 µg/ml
T5 sequence (peptide): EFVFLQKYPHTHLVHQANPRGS

[7] = molecular target: T6, hGDF8 peptide 6 (48-72), C-terminal biotinylated (human); test: Luminex peptide beads, antibody 2.5 µg/ml
T6 sequence (peptide, C-terminal biotin): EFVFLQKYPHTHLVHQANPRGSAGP

[8] = molecular target: T7, hGDF8 peptide 6 (48-72), N-terminal biotinylated (human); test: Luminex peptide beads, antibody 2.5 µg/ml
T7 sequence (peptide, N-terminal biotin): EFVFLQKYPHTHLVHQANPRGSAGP

[9] = molecular target: T8, hGDF8 peptide 6 (48-72), unmodified (human); test: Luminex peptide beads, antibody 2.5 µg/ml
T8 sequence (peptide): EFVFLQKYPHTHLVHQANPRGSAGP

[10] = molecular target: T9, hGDF8 peptide 7 (52-65), C-terminal biotinylated (human); test: Luminex peptide beads, antibody 2.5 µg/ml
T9 sequence (peptide, C-terminal biotin): LQKYPHTHLVHQAN

[11] = molecular target: T10, hGDF8 peptide 7 (52-65), unmodified (human); test: Luminex peptide beads, antibody 2.5 µg/ml
T10 sequence (peptide): LQKYPHTHLVHQAN

[12] = molecular target: T11, hGDF8 peptide 8 (52-72), C-terminal biotinylated (human); test: Luminex peptide beads, antibody 2.5 µg/ml
T11 sequence (peptide, C-terminal biotin): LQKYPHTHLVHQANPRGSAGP

[13] = molecular target: T12, hGDF8 peptide 8 (52-72), unmodified (human); test: Luminex peptide beads, antibody 2.5 µg/ml
T12 sequence (peptide): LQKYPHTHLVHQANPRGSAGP

[14] = molecular target: T13, hGDF8 peptide 9 (56-65), C-terminal biotinylated (human); test: Luminex peptide beads, antibody 2.5 µg/ml
T13 sequence (peptide, C-terminal biotin): PHTHLVHQAN

[15] = molecular target: T14, B65 chimera: GDF8.1-64.BMP2.68-77GDF8.73-109 (Mus musculus (Mouse)) (UniProt O08689); test: Western blot of CHO.hFurin supernatant, antibody 2 µg/ml
T14 sequence: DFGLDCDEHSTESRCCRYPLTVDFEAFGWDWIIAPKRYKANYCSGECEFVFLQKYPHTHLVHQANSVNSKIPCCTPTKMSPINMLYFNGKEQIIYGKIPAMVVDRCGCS

[16] = molecular target: T15, B91 chimera: GDF8.1-90.BMP2.96-110.GDF8.106-109; test: as above
T15 sequence: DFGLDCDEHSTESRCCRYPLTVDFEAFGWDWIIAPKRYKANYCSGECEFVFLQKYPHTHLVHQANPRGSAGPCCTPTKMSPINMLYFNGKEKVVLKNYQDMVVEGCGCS

[17] = molecular target: T16, T65 chimera: GDF8.1-64.TGFβ1.69-76.GDF8.73-109 (Mus musculus (Mouse)) (UniProt O08689); test: as above
T16 sequence: T14 sequence with S66P, V67G, N68A, K70A, I71A

Measured: binding

EFVFLQKYPHTHLVHQANPRGSAGP [hGDF8 peptide 6 (48-72), unmodified]
binds: [1]

B1: 8D12 (antibody, V domains shown)
VH: QVQLVESGGGVVQPGRSLRLSCAASGFTFSRYGIHWVRQAPGKGLEWVAVISYDGSDEYYVDSVKGRFSISRDNSKNTLYLQMNSLRPADSAVYYCVKGDLELGFDYWGQGTLVTVSS
VL: DIVMTQAAPSIPVIPGESVSMSCRSSKSLLYSNGHTYVYWFVQRPGQSPQLLIYRMSNLASGVPDRFSGSGSGTAFTLRISRVEAEDVGVYYCMQNLEFPLTFGAGTKLELK
not listed: [1]
binds: all other assays above

B2: 1A2 (antibody, V domains shown)
VH: EVQLLESGGGLVQPGGSLRLSCAASGFTSITYAMSWVRQAPGKGLEWVSAISVSGTNTYYADSVKGRFTISRDKSKNMLYLQMNSLRAEDTAVYYCAKDLLHNWKYGTFDIWGQGTMVTVSS
VL: EIVMTQSPATLSVSPGERATLSCRASQSVDSNLVWYQQKPGQVPRLLIYGASTRATGIPARFSGSGSGTEFTLTISSLQSEDFAVYYCQQYNKWPLTFGGGTKVEIK
binds: [15]
